According to patent US12262710B2, “Fungicidal compounds” (SYNGENTA CROP PROTECTION AG, priority 2019, dated 2025):
Some of these results come from one statement about several compounds together.

Tested on: Sclerotinia sclerotiorum
Assay: Sclerotinia sclerotiorum (cottony rot, white mold), liquid culture growth inhibition
Format: cell-based
Details: 60 ppm; nutrient broth (PDB), 72 hrs, photometric at 620 nm; compared to untreated control

Compound	control of Sclerotinia sc/erotiorum
CO/C=C(\Oc1cc(C2CC2C2CC2)ccc1C)C(=O)OC (stereo not shown) [E.7, methyl (Z)-2-[5-(2-cyclopropylcyclopropyl)-2-methyl-phenoxy]-3-methoxy-prop-2-enoate]	at least 80%
CO/C=C(\Oc1cc(C2CCC2)ccc1C)C(=O)OC [E.12, methyl (Z)-2-(5-cyclobuty1-2-methyl-phenoxy)-3-methoxy-prop-2-enoate]	at least 80%
CO/C=C(\Oc1cc(C2CCCC2)ccc1C)C(=O)OC [E.13, methyl (Z)-2-(5-cyclopentyl-2-methyl-phenoxy)-3-methoxy-prop-2-enoate]	at least 80%
CO/C=C(\Oc1cc(C2CCC(C(F)F)CC2)ccc1C)C(=O)OC (stereo not shown) [E.22, methyl (Z)-2-[5-[4-(difluoromethyl)cyclohexyl]-2-methyl-phenoxy]-3-methoxy-prop-2-enoate]	at least 80%
CO/C=C(\Oc1cc(C2CCC(OC(F)F)CC2)ccc1C)C(=O)OC (stereo not shown) [E.23, methyl (Z)-2-[5-[4-(difluoromethoxy)cyclohexyl]-2-methyl-phenoxy]-3-methoxy-prop-2-enoate]	at least 80%
CO/C=C(\Oc1cc(C2=CCCCCC2)ccc1C)C(=O)OC [F.5, methyl (Z)-2-[5-(cyclohepten-1-yl)-2-methyl-phenoxy]-3-methoxy-prop-2-enoate]	at least 80%
CO/C=C(\Oc1cc(C2=CCC(C(F)F)CC2)ccc1C)C(=O)OC (stereo not shown) [F.7, methyl (Z)-2-[5-[4-(difluoromethyl)cyclohexen-1-yl]-2-methyl-phenoxy]-3-methoxy-prop-2-enoate]	at least 80%
